Values quoted from earlier work, collected in patent US5945417A, “Heterocyclic compounds, their preparation and use” (priority 1995, dated 1999).
At least one structure is not confirmed: it was looked up by name or label, or the drawing left a doubt.

Test system: MGluR4 receptor
Details: literature

## N[C@@H](CCP(=O)(O)O)C(=O)O [L-AP4, L-2-amino4-phosphonobutyrate]
  agonist at the MGluR4 receptor: agonist at the MGluR4 receptor
